Data as given in PubChem BioAssay AID504786 (Drosophila RNAi Screening Center, 2011).

- Purpose: 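Knock-downs reducing HIF reporter induction by the iron chelator DFO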 (primary screen)
- Cells: Drosophila S2 cells with a stable HIF luciferase reporter
- Knock-down reagent: long dsRNA against Drosophila genes, about 0.2 µg dsRNA per well of a 384-well plate
- Duration: three days of knock-down, then 20 h of DFO before reading
- Conditions: desferrioxamine (DFO) at 100 µM, an iron chelator that mimics hypoxia, for 20 h
- Measured: 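Firefly luciferase driven by the mouse ldh-a hypoxia-response element, measured after 20 h of 100 µM DFO; z-scores per plate, higher means more signal lost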
- Reading the numbers: z-score: higher = stronger loss of HIF reporter signal
In all, the deposit lists about 21,000 reagents; below is a random part of those that have a named target and a result. 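Primary screen; positive scores mean lost reporter signal, so the sign may be inverted from the usual convention.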 The numbers tell different reagents against one gene apart. A plus sign joins genes that one reagent is predicted to hit. Not all columns of the deposit are shown. Reagent sequences are not shown.

{"target gene": "CG11417", "dsRNA no.": 1, "z-score, replicate 1": 0.6}
{"target gene": "Spt7", "dsRNA no.": 1, "z-score, replicate 1": 0.5}
{"target gene": "Hsl (Hormone-sensitive lipase)", "dsRNA no.": 1, "z-score, replicate 1": -0.1}
{"target gene": "CG42634 + CG42635", "dsRNA no.": 1, "z-score, replicate 1": -0.2}
{"target gene": "CG13097", "dsRNA no.": 1, "z-score, replicate 1": -0.2}
{"target gene": "Tango6 (Transport and Golgi organization 6)", "dsRNA no.": 1, "z-score, replicate 1": -0.3}
{"target gene": "Dhc1 (Dynein heavy chain 1)", "dsRNA no.": 1, "z-score, replicate 1": -0.4}
{"target gene": "r + CG13012", "dsRNA no.": 1, "z-score, replicate 1": -0.4}
{"target gene": "CG18542 + CG32939", "dsRNA no.": 1, "z-score, replicate 1": -0.4}
{"target gene": "CG9095", "dsRNA no.": 1, "z-score, replicate 1": 0.1}
{"target gene": "CG14448", "dsRNA no.": 1, "z-score, replicate 1": -0.2}
{"target gene": "CG14492", "dsRNA no.": 1, "z-score, replicate 1": -0.3}
{"target gene": "Nup214 (Nucleoporin 214kD)", "dsRNA no.": 1, "z-score, replicate 1": -0.1}
{"target gene": "Ugt37C1 (UDP-glycosyltransferase family 37 member C1)", "dsRNA no.": 1, "z-score, replicate 1": -0.1}
{"target gene": "CG33235", "dsRNA no.": 1, "z-score, replicate 1": -0.2}
{"target gene": "fln (flightin)", "dsRNA no.": 1, "z-score, replicate 1": -0.3}
{"target gene": "snRNA:U1:95Cc (small nuclear RNA U1 at 95C c)", "dsRNA no.": 1, "z-score, replicate 1": 4.2}
{"target gene": "Mesh1 (Metazoan SpoT homolog-1)", "dsRNA no.": 1, "z-score, replicate 1": 0.2}
{"target gene": "CG10211", "dsRNA no.": 1, "z-score, replicate 1": -0.1}
{"target gene": "CkIIalpha (casein kinase IIalpha)", "dsRNA no.": 1, "z-score, replicate 1": 1.1}
{"target gene": "jbug (jitterbug)", "dsRNA no.": 1, "z-score, replicate 1": 0.1}
{"target gene": "jbug (jitterbug)", "dsRNA no.": 2, "z-score, replicate 1": -0.2}
{"target gene": "jbug (jitterbug)", "dsRNA no.": 3, "z-score, replicate 1": -0.2}
{"target gene": "jbug (jitterbug)", "dsRNA no.": 4, "z-score, replicate 1": -0.3}
{"target gene": "CG10467", "dsRNA no.": 1, "z-score, replicate 1": -0.4}
{"target gene": "Nopp140", "dsRNA no.": 1, "z-score, replicate 1": -0.3}
{"target gene": "Lipt2 (Lipoyl(octanoyl) transferase 2)", "dsRNA no.": 1, "z-score, replicate 1": -0.3}

3 entries from above in another layout.
target gene | dsRNA no. | z-score, replicate 1
CG14492 | 1 | -0.3
Nup214 (Nucleoporin 214kD) | 1 | -0.1
Ugt37C1 (UDP-glycosyltransferase family 37 member C1) | 1 | -0.1
